PubChem BioAssay AID686937, Drosophila RNAi Screening Center – 2013
The screen tested about 23,000 reagents; below is a random part of those with a known target gene and a result. 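Reduced-secretion tags in replicate 1 do not always agree with the z-scores; no criterion for assigning the tags was given.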 Reagents against one gene are numbered here. Names joined by + are all predicted targets of the reagent. No sequences are given here. The record does not give: the amount of reagent.

Assay: 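Knock-downs that reduce output of a secreted reporter enzyme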 (primary screen)
Cells: Drosophila S2 cells expressing secreted horseradish peroxidase
Reagents: long dsRNA against Drosophila genes
Time to read-out: about 5.5 days (5 days dsRNA, then 12 h reporter induction)
Conditions: reporter expression induced after 5 days of dsRNA, read 12 h later; inducer not stated
Measurement: 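Chemiluminescent measurement of peroxidase in the medium 12 h after reporter induction, following 5 days of dsRNA, given as a z-score per plate; higher means more secretion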
Direction: z-score: higher = more reporter secreted into medium

Gene | reagent | z-score, replicate 1 | z-score, replicate 2 | z-score, replicate 3 | z-score, replicate 4 | phenotype, replicate 1
CG17364 | 1 | 0.5 | 0.18 | – | – | –
CG17364 | 2 | 0.25 | 0.52 | -0.01 | 0.39 | –
CG17364 | 3 | 0.43 | -0.57 | – | – | –
CG3065 | 1 | 0.38 | 0.53 | – | – | –
SsRbeta | 1 | 0.24 | -0.06 | – | – | –
CG13465 | 1 | 0.41 | 0.22 | – | – | –
CR17024 | 1 | 0.21 | 0.49 | – | – | –
Jon65Aii | 1 | 0.26 | 0.48 | – | – | –
CG33695 + cana | 1 | -2.2 | -1.13 | – | – | reduced secretion
CG33695 + cana | 2 | 0.46 | 0.18 | – | – | –
MtnF | 1 | 0.18 | 0.18 | – | – | –
pasha | 1 | -0.25 | -0.08 | – | – | –
CG8272 | 1 | 0.48 | 0.42 | – | – | –
CG7627 | 1 | 0.34 | 0.34 | – | – | –
Zip89B | 1 | 0.41 | 0.48 | – | – | –
Vajk1 | 1 | 0.61 | 0.39 | – | – | –
CG34204 | 1 | 0.36 | 0.19 | – | – | –
vtd | 1 | -0.37 | -0.23 | – | – | –
Tdc1 | 1 | 0.25 | – | – | – | –
CG13008 | 1 | 0.19 | 0.26 | – | – | –
CG13008 | 2 | -0.03 | 0.19 | – | – | –
Vps13 | 1 | 0.18 | 0.25 | – | – | –
CG12831 | 1 | 0.2 | 0.31 | – | – | –
Pp1-87B | 1 | -0.37 | -0.89 | – | – | –
Mal-A4 | 1 | 0.32 | 0.07 | – | – | –
CG42720 (retired record) | 1 | -0.18 | -0.02 | – | – | –
CR12842 | 1 | 0.26 | 0.2 | – | – | –
SP2353 | 1 | 0.62 | 0.68 | – | – | –
CG9021 | 1 | 0.22 | 0.44 | – | – | –
Rnf146 | 1 | 0.46 | 0.74 | – | – | –
CG13144 | 1 | 0.21 | 0.15 | – | – | –
CG6271 | 1 | 0.46 | 0.43 | – | – | –
CG7650 | 1 | 0.67 | 0.41 | -0.26 | 0.05 | –
ras | 1 | 0.16 | -0.61 | – | – | –
CG17109 | 1 | 0.51 | 0.24 | – | – | –
CG14618 | 1 | 0.08 | 0.03 | – | – | –
CG42750 | 1 | 0.38 | 0.52 | 0.1 | -0.06 | reduced secretion
CG42750 | 2 | 0.56 | 0.14 | – | – | –
CG42750 | 3 | 0.47 | 0.27 | – | – | –
CG42750 | 4 | 0.07 | -0.57 | – | – | –
CG34227 | 1 | 0.22 | 0.43 | – | – | –
CG34227 | 2 | 0.27 | 0.38 | – | – | –
CG14949 | 1 | 0.16 | 0.11 | – | – | –
CG5157 | 1 | 0.11 | 0.3 | – | – | –
RpL19 | 1 | -4.75 | -6.44 | – | – | reduced secretion
Brf | 1 | 0.01 | 0.81 | – | – | –
Brf | 2 | -0.21 | -0.96 | – | – | –
Brf | 3 | 0.11 | -0.6 | – | – | –
Slip1 | 1 | 0.44 | 0.1 | – | – | –
Gr36b | 1 | -0.64 | -0.21 | – | – | –
karr | 1 | 0.49 | 0.28 | – | – | –
l(3)76BDm | 1 | -0.18 | -0.28 | – | – | –
DZIP1 | 1 | 0.01 | 0.19 | – | – | –
SerRS-m | 1 | 0.26 | 0.25 | – | – | –
CG5267 | 1 | 0.25 | 0.47 | – | – | –
bun | 1 | -0.02 | -0.28 | – | – | –
bun | 2 | -0.13 | 0.1 | – | – | –
bun | 3 | -5.66 | -3.48 | – | – | reduced secretion
CG15201 | 1 | 0.36 | 0.62 | – | – | –
CG14292 | 1 | 0.47 | 0.25 | – | – | –
CheA75a | 1 | 0.39 | 0.35 | – | – | –
CG5846 | 1 | 0.38 | 0.41 | – | – | –
Vago | 1 | 0.14 | 0.15 | – | – | –
CG3687 | 1 | 0.37 | 0.14 | – | – | –
Dhfr | 1 | -0.51 | 0.03 | – | – | –
robo3 | 1 | 0.34 | 0.26 | – | – | –
robo3 | 2 | -0.18 | 0.15 | – | – | –
robo3 | 3 | 0.29 | 0.27 | – | – | –
CG1850 | 1 | 0.44 | 0.34 | – | – | –
CG14257 | 1 | 0.33 | 0.48 | – | – | –
Vha16-4 | 1 | 0.09 | -0.12 | – | – | –
Rme-8 | 1 | -0.02 | 0.27 | – | – | –
CG3213 | 1 | -1.87 | 0.75 | 0.68 | -1.34 | reduced secretion
CG42834 | 1 | 0.18 | -0.09 | – | – | –
CG16700 | 1 | 0.22 | 0.14 | – | – | –
CG17260 | 1 | 0.42 | 0.46 | – | – | –
Awh | 1 | 0.23 | 0.15 | – | – | –
Cpes | 1 | -0.32 | -0.63 | – | – | –
CG9410 + CG15908 | 1 | -0.05 | -0.18 | – | – | –
CG9410 + CG15908 | 2 | 0.2 | 0.28 | – | – | –
TFAM | 1 | 0.24 | 0.21 | – | – | –
CG8031 | 1 | 0.47 | 0.31 | – | – | –

14 neighbouring reagents from above, for reference:
Gene | reagent | z-score, replicate 1 | z-score, replicate 2 | z-score, replicate 3 | z-score, replicate 4 | phenotype, replicate 1
CG3687 | 1 | 0.37 | 0.14 | – | – | –
Dhfr | 1 | -0.51 | 0.03 | – | – | –
robo3 | 1 | 0.34 | 0.26 | – | – | –
robo3 | 2 | -0.18 | 0.15 | – | – | –
robo3 | 3 | 0.29 | 0.27 | – | – | –
CG1850 | 1 | 0.44 | 0.34 | – | – | –
CG14257 | 1 | 0.33 | 0.48 | – | – | –
Vha16-4 | 1 | 0.09 | -0.12 | – | – | –
Rme-8 | 1 | -0.02 | 0.27 | – | – | –
CG3213 | 1 | -1.87 | 0.75 | 0.68 | -1.34 | reduced secretion
CG42834 | 1 | 0.18 | -0.09 | – | – | –
CG16700 | 1 | 0.22 | 0.14 | – | – | –
CG17260 | 1 | 0.42 | 0.46 | – | – | –
Awh | 1 | 0.23 | 0.15 | – | – | –
